# Experimental data as given in patent publication US20230364057A1, “BACTERIAL DNA GYRASE INHIBITORS AND METHODS OF USE THEREOF” (THE FLORIDA INTERNATIONAL UNIVERSITY BOARD OF TRUSTEES, priority 2022, published 2023).
# Tested on: DNA
# Test: DNA intercalation / DNA binding
smiles,measurement,value
CSC1SC2C(=O)N(C)C(C(C)C)C(=O)OCC(NC(=O)c3cnc4ccccc4n3)C(=O)NC(C)C(=O)N(C)C1C(=O)N(C)C(C(C)C)C(=O)OCC(NC(=O)c1cnc3ccccc3n1)C(=O)NC(C)C(=O)N2C (stereo not shown) [Compound 258],DNA intercalator,DNA intercalators
